According to the supplement of paper PMC12282887:
These are raw signals, not scaled to a control.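 For antimicrobials the highest concentration approximated the MIC. Most other compounds topped out at 500 µM, and known inducer-like compounds reached up to 1 mM. Inocula for deletion strains were tenfold smaller, and any well growing below 10% of the overall median was considered non-growing.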

Tested on: Escherichia coli BW25113
Assay: growth (OD600 area under curve, 8 h) (OD600 x h); higher = more growth
Method: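 E. coli BW25113 reporter strains (wild type, ΔmarA, ΔsoxS, Δrob, each carrying one of 8 lux reporter plasmids) were grown in 40 µl LB in 384-well plates at 37°C, 800 rpm, with each compound at 4 two-fold concentrations, in biological duplicates. Growth is the baseline-corrected OD600 area under the curve over 8 h (0-8 h WT, 1-9 h deletion strains).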

COc1ccc2[nH]c([S+]([O-])Cc3ncc(C)c(OC)c3C)nc2c1 (centres undefined) [Omeprazole]
growth
Settings	reporter plasmid: EVC	reporter plasmid: acrABp	reporter plasmid: marRABp	reporter plasmid: micFp	reporter plasmid: ompFp	reporter plasmid: robp	reporter plasmid: soxSp	reporter plasmid: tolCp
21.6 µg/ml, genetic background: wild type	3.11	3.38	3.43	3.32	3.21	3.23	3.25	3.34
21.6 µg/ml, genetic background: ΔmarA	3.07	4.16	3.56	3.25	3.25	3.69	2.91	2.91
21.6 µg/ml, genetic background: Δrob	3.13	3.09	3.47	2.93	2.43	2.85	3.12	3.239
21.6 µg/ml, genetic background: ΔsoxS	3.334	3.17	3.28	3.05	2.92	3.31	3.11	3.38
43.2 µg/ml, genetic background: wild type	3	3.357	3.28	3.16	3.15	3.04	3.13	3.09
43.2 µg/ml, genetic background: ΔmarA	3.05	3.72	3.2	3.16	3.07	3.3	2.91	2.85
43.2 µg/ml, genetic background: Δrob	2.91	2.86	3.17	2.97	2.31	2.7	3.02	3.276
43.2 µg/ml, genetic background: ΔsoxS	3.28	3.19	3.2	2.631	2.92	3.21	2.97	3.22
86.4 µg/ml, genetic background: wild type	3.23	3.18	3.38	3.07	3.26	3.33	3.13	3.2
86.4 µg/ml, genetic background: ΔmarA	3.07	4.14	3.44	2.67	3.08	3.43	2.71	2.87
86.4 µg/ml, genetic background: Δrob	3.17	3.08	3.53	2.81	2.51	2.86	3.06	3.09
86.4 µg/ml, genetic background: ΔsoxS	3.35	3.52	3.51	2.5	3.04	3.5	2.96	3.23
172.7 µg/ml, genetic background: wild type	3.01	3.06	3.25	3.21	3.12	3.4	3.17	3.25
172.7 µg/ml, genetic background: ΔmarA	3.14	4.05	3.29	2.78	3.19	3.49	2.9	2.86
172.7 µg/ml, genetic background: Δrob	2.97	2.73	3.44	3.2	2.65	2.77	2.71	3.06
172.7 µg/ml, genetic background: ΔsoxS	3.53	3.19	3.11	2.87	2.93	3.45	3.14	3.44

CC(=O)C(NC(=O)C(C)C(O)C(C)NC(=O)C(NC(=O)c1nc(C(CC(N)=O)NCC(N)C(N)=O)nc(N)c1C)C(O[C@@H]1O[C@@H](CO)[C@@H](O)[C@H](O)[C@]1(C)O[C@@H]1OC(CO)[C@H](O)[C@](O)(C(N)=O)[C@H]1O)c1cnc[nH]1)C(=O)NCCC1=NC(c2nc(C(N)=O)cs2)CS1 (some centres undefined) [Phleomycin]
growth
Settings	reporter plasmid: EVC	reporter plasmid: acrABp	reporter plasmid: marRABp	reporter plasmid: micFp	reporter plasmid: ompFp	reporter plasmid: robp	reporter plasmid: soxSp	reporter plasmid: tolCp
0.62 µg/ml, genetic background: wild type	2.17	1.61	1.88	1.98	1.38	1.94	2.35	2.16
0.62 µg/ml, genetic background: ΔmarA	1.54	0.81	0.341	1.32	0.647	1.15	1.44	1
0.62 µg/ml, genetic background: Δrob	1.01	0.3	0.867	1.58	0.36	0.271	1.54	1.55
0.62 µg/ml, genetic background: ΔsoxS	1.47	1.35	0.403	1.3	1.05	1.2	1.02	1.34
1.2 µg/ml, genetic background: wild type	1.41	0.554	0.725	1.41	0.297	0.685	1.58	1.45
1.2 µg/ml, genetic background: ΔmarA	0.0758	0.0205	0.0266	0.226	-0.0222	0.0266	0.0828	0.0555
1.2 µg/ml, genetic background: Δrob	0.0186	-0.00388	0.0957	0.501	-0.0214	0.00377	0.476	0.481
1.2 µg/ml, genetic background: ΔsoxS	0.523	0.125	0.0442	0.147	0.129	0.111	0.189	0.15
2.5 µg/ml, genetic background: wild type	0.646	0.0886	0.161	0.478	0.0808	0.163	0.564	0.603
2.5 µg/ml, genetic background: ΔmarA	0.00541	-0.0201	-0.0144	-0.0283	-0.0636	-0.036	-0.011	-0.0293
2.5 µg/ml, genetic background: Δrob	-0.0358	-0.0614	0.0266	-0.0172	-0.0575	-0.00543	-0.00565	0.0384
2.5 µg/ml, genetic background: ΔsoxS	0.0743	0.0813	-0.00943	0.0403	0.0344	0.0258	0.0427	0.0116
5 µg/ml, genetic background: wild type	0.125	0.0245	0.0891	0.166	0.0596	0.121	0.172	0.212
5 µg/ml, genetic background: ΔmarA	-0.0148	-0.0236	-0.0036	-0.0226	-0.0463	-0.028	-0.0392	-0.046
5 µg/ml, genetic background: Δrob	-0.121	-0.0309	-0.0178	-0.0815	-0.0413	-0.0037	-0.00633	-0.0258
5 µg/ml, genetic background: ΔsoxS	0.0244	0.0304	-0.0485	-0.0112	-0.00389	0.0018	-0.0011	-0.013

O=C(/C=C/C=C/c1ccc2c(c1)OCO2)N1CCCCC1 [Piperine]
growth
Settings	reporter plasmid: EVC	reporter plasmid: acrABp	reporter plasmid: marRABp	reporter plasmid: micFp	reporter plasmid: ompFp	reporter plasmid: robp	reporter plasmid: soxSp	reporter plasmid: tolCp
17.8 µg/ml, genetic background: wild type	3.342	3.26	3.47	3.19	3.28	3.54	3.11	3.28
17.8 µg/ml, genetic background: ΔmarA	3.45	4.58	3.88	3.62	3.73	4.23	3.41	3.435
17.8 µg/ml, genetic background: Δrob	3.04	3.22	3.59	3.12	2.94	2.92	2.77	3.12
17.8 µg/ml, genetic background: ΔsoxS	3.33	3.16	3.32	3.17	3.26	3.41	3.21	3.38
35.7 µg/ml, genetic background: wild type	3.291	3.18	3.41	3.02	3.23	3.49	3.08	3.19
35.7 µg/ml, genetic background: ΔmarA	3.04	3.99	3.63	3.32	3.52	3.94	2.74	3.07
35.7 µg/ml, genetic background: Δrob	2.99	3.07	3.45	2.99	2.79	2.7	2.54	2.97
35.7 µg/ml, genetic background: ΔsoxS	3.12	3.32	3.32	2.89	3.13	3.2	2.94	3.26
71.3 µg/ml, genetic background: wild type	3.31	3.24	3.43	2.98	3.2	3.31	2.91	3.19
71.3 µg/ml, genetic background: ΔmarA	3.2	4.18	3.75	3.26	3.59	4.06	3.12	3.13
71.3 µg/ml, genetic background: Δrob	2.97	3.23	3.55	3.09	2.83	2.81	2.52	3.2
71.3 µg/ml, genetic background: ΔsoxS	3.18	3.13	3.45	2.95	3.04	3.24	2.825	3.28
142.7 µg/ml, genetic background: wild type	3.214	3.11	3.2	2.72	3.07	2.91	2.9	3.02
142.7 µg/ml, genetic background: ΔmarA	2.956	3.79	3.42	3.33	3.45	3.94	2.97	3.07
142.7 µg/ml, genetic background: Δrob	2.93	2.78	3.36	3.01	2.57	2.28	2.48	3.15
142.7 µg/ml, genetic background: ΔsoxS	2.98	3.11	3.01	2.76	2.75	2.73	2.69	3.23
